# Source: PMC8745574
# No constants are given. Whether binding was seen depends on the method and setting. Some binding calls cover weakened binding; strength is not graded here.
# T1: AtTERT RID construct (1-271 aa) (Arabidopsis thaliana) (UniProt Q9SPU7)
# T1 sequence: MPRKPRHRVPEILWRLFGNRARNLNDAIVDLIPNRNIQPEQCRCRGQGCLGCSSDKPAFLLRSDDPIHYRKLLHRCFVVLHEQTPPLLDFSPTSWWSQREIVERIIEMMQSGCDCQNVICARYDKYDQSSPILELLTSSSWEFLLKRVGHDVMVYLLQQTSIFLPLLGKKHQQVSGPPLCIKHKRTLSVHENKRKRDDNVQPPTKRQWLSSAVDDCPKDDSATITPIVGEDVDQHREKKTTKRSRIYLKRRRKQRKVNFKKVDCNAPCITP
# T2: AtTERT TEN construct (1-233 aa) (Arabidopsis thaliana) (UniProt Q9SPU7)
# T2 sequence: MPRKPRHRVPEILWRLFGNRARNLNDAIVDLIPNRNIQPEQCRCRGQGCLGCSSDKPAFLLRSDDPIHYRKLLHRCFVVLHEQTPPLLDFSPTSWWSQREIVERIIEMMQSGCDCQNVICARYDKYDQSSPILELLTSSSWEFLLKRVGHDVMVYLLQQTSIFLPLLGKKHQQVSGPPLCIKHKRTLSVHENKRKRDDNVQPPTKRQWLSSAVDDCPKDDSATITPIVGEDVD
# T3: POT1a (Arabidopsis thaliana) (UniProt Q56Y52)
# T3 sequence: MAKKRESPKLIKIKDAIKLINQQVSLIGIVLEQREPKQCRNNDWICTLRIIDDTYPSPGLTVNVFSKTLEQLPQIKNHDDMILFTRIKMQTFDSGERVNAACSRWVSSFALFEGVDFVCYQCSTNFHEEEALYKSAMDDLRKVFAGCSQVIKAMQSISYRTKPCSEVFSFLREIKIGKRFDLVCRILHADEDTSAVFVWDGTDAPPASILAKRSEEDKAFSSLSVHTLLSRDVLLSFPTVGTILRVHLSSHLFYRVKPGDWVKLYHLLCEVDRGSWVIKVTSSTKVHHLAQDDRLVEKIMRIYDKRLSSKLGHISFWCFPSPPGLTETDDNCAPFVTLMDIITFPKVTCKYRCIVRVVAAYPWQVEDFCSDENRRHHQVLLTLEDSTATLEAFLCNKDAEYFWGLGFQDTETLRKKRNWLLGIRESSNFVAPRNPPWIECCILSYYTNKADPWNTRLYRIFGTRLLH
# B1: AT3G59020 protein, a member of the importin beta family (protein, UniProt F4J738 1-1030)
# chain: MDLPSLALIVGAAAFSPNPDERRAAEQSLNQLQHTPQHLIRILQIIVDGGSDLSVRQSASIHFKNFIAKHWEPHSGDQNIILPSDKNVVRNQILVFVSQVPPILRVQMGECLKTIIYADYPEQWPELLDWVKQNLQKPQVYGALFVLRILSSKYEFKSDEDRAPIHRVVEETFPHLLNIFNNLVHVENPSLEVADHIKLICKIFWSCIYLELPRPLFDPNFFNAWMGLFLNILERPVPVEGQPEDPELRKSWGWWKAKKWIAHILNRLYTRFGDLKLQNPDNKAFAQMFQINYAAKILECHLKLLNAIRIGGYLPDRVINLILQYLSNSISKSSMYNLLQPHLNTLLFEIVFPLMCFNDNDQMLWDEDPHEYVRKGYDIIEDLYSPRTASMDFVTELVRKRGKENFPKFIQFVVDIFKRYNEASLENKPYRLKDGALLAVGTLCDKLRQTEPYKSELENMLVQHVFPEFSSPAGHLRAKAAWVAGQYANIDFSDQSNFSKALHCVISGMCDLELPVRVDSVFALRSFIEACKDLDEIRPVLPQLLDEFFKLMKEVENEDLAFTLETIVYKFGEEISPYALGLCQNLASAFWRCIDTDNGDDETDDAGALAAVGCLRAISTILESISSLPHLYGQIEPQLLPIMRKMLTTDGQDVFEEVLEIVSYITTFSPTISLEMWSLWPLMMEALVDWAIDFFPNILVPLHNYISRGTGHYLTCKEPDYQQNLWNVISVLMANKNIDDSDLEPAPKLLGIVLQTCKGQVDQWVEPYLRITLDRLRGAEKSSFKCLLVEVVANAFYYNTPLALGILQRFGIATEIFTLWFQMLQEKKKSGARSNFKREHDKKVCILGLTSLFSLPAGQLPGEVLPHVFRALLELLVAYKDQLAEAAKAEEEEEDEDGDDDDMDEFQTDDEDEDGDDENPDETDGSTLRKLAAQAKDFRSYSDDDDFSDDDFSDDEELESPIDEVDPFVLFMDAVTAMQVSDSPRFQSLTQTLDPHYHGLASTIAQHTELRRAEILKEKLEKQSSATVAS
# B2: RH38 (protein, UniProt Q93ZG7 1-496)
# chain: MADTVEKVPTVVESSSSSTVEASNSAEKTEPTTEKKKWGDVEDDDDEEEAVSELNSLSIKEEEKPDSILEEPEDSNIKAVTSGDTPYTSASRFEDLNLSPELMKGLYVEMKFEKPSKIQAISLPMIMTPPHKHLIAQAHNGSGKTTCFVLGMLSRVDPTLREPQALCICPTRELANQNMEVLQKMGKFTGITAELAVPDSTRGAPAATRGAPVSAHVVIGTPGTLKKWMAFKRLGLNHLKILVFDEADHMLATDGFRDDSLKIMKDIGRVNPNFQVLLFSATFNETVKDFVARTVKDPNQLFVKREDLALDSVKQYKVVCPKEQNKIEVIKDQIMELGDIGQTIIFVKTKASAQKVHKALAEMGYDVTSVHGNLTESDRDKIVKEFKECLTQVLIATDVIARGFDQQRVNLVVNYNLPTKYETGEPDYEVYLHRVGRAGRFGRKGAVFNLLLDDGWDKEVMEKIEKYFEANVKEIKSWNSEEEYKSALKEAGLLDE
# B3: ETG1 (E2F target gene 1) (protein, UniProt Q501D5 1-589)
# chain: MGGPAYDCLTNPLGAVRFSFVNALSSGYDPASSVGKDWGVVDLFRHYFSDESAISQVPILDSSSIKWVQPKTLVRFRGMIQDMLGNEFYAGAYKDDSTWRTNKYSDVSQFPEGSSTEIQVWERRLLYCVPVPGKNQWTECSSQELKNRFLDLTGQNREKRVRVDEEMTDSMDSSTLEAGRNGSPFKKMKVGEATSSASESQVPQTSGIPPATSADSLPCLVKIYDSPESDLKLNDVVEFLGVLTFDPIVMMDTDTLDENSDALSEAESVQMPSGKVPRLHCLIHRKLETQHFLHGSSLLPEPKSPQIFKEIRESLMKYLTGLLGNDHIAAQFLLLHLLSKVHGRVDNVAVGKLSLNLIHLNKESMSIFGTQLSGALKSLLPFTQSIPLTIEYLNTASFGPKKDYGINRLMPGVLQIADGTHLILDETELQPGTLNSVGVENANLLKNLLECQKVEYDFQYYKMEMATDVQMLIFSEGKSNIMPADLVLPLQPSQVNSLEVITPETAETWRCYLATCKSLSHSIGQELQQVVENDLVAARQTDRSLGSQDLSRLLTMARMMSVSYGETTLSLEHWQMVLELERLRKERLK
# B4: ZML1 (ZIM-LIKE 1) (protein, UniProt Q8GXL7 1-297)
# chain: MDDLHGRNGRMHIGVAQNPMHVQYEDHGLHHIDNENSMMDDHADGGMDEGVETDIPSHPGNSADNRGEVVDRGIENGDQLTLSFQGQVYVFDRVSPEKVQAVLLLLGGREVPHTLPTTLGSPHQNNRVLGLSGTPQRLSVPQRLASLLRFREKRKGRNFDKTIRYTVRKEVALRMQRKKGQFTSAKSSNDDSGSTGSDWGSNQSWAVEGTETQKPEVLCRHCGTSEKSTPMMRRGPDGPRTLCNACGLMWANKGTLRDLSKVPPPQTPQHLSLNKNEDANLEADQMMEVTGDISNTQ
# B5: armadillo-repeat containing protein LFR (leaf and flower related) (protein, UniProt Q9LS90 1-460)
# chain: MQKRELGKSGGNSGGSSGPPAKRGRPFGSTSANSAAAAAAAAAADAMSPSALLGPSLLVHNSFVEQNNRRIVLALQSGLKSEVTWALNTLTLLSFKEKEDIRRDVMPLAKIAGLLDALLLIIDDWRDIALPKDLTRGTRVRTLGTNASVTGFGNEYDALASIQPPGSGIGSSAAEALGKKSTGKHQSSQWWMEEDGLFNLDDEGRSEKQMCAIAASNVIRNFSFMPDNEVVMAQHRHCLETVFQCIHDHMTEDEELVTNSLETIVNLAHLMDLRIFSSLKQSYININEKKAVQAVVGILNSSVKAWNCAAAELLGRLIINPDNEPFISPLIPQIHKRLIDLLSIQAVDAQAAAVGALYNLVEVNMDCRLKLASERWAVDRLLKVIKTPHPVPEVCRKAAMILENLVSEPQNRGLLLAYENAFAELLFQEGKYSDSFARILYELTARSNSRVASARGIWGM
# B6: KNAT5 (protein, UniProt P48002 1-383)
# chain: MSFNSSHLLPPQEDLPLRHFTDQSQQPPPQRHFSETPSLVTASFLNLPTTLTTADSDLAPPHRNGDNSVADTNPRWLSFHSEMQNTGEVRSEVIDGVNADGETILGVVGGEDWRSASYKAAILRHPMYEQLLAAHVACLRVATPVDQIPRIDAQLSQLHTVAAKYSTLGVVVDNKELDHFMSHYVVLLCSFKEQLQHHVCVHAMEAITACWEIEQSLQSLTGVSPSESNGKTMSDDEDDNQVESEVNMFDGSLDGSDCLMGFGPLVPTERERSLMERVKKELKHELKQGFKEKIVDIREEIMRKRRAGKLPGDTTSVLKEWWRTHSKWPYPTEEDKAKLVQETGLQLKQINNWFINQRKRNWNSNSSTSSTLTKNKRKRTGKS
# B7: RPA3 (replication protein A3) (protein, UniProt Q6NLG7 1-106)
# chain: MDTSSPAAFVNGALLRRYIGQKVRAVIQVIRSDVGSVIGKSTDDQQIVVKGSPQPPLTTYLEVIGIAETDNTIRAEVWTNFGDSFDVQNYNELCKLANGEFRHLFI
# B8: KNAT4 (protein, UniProt P48001 1-393)
# chain: MAFHNNHFNHFTDQQQHQPPPPPQQQQQQHFQESAPPNWLLRSDNNFLNLHTAASAAATSSDSPSSAAANQWLSRSSSFLQRGNTANNNNNETSGDVIEDVPGGEESMIGEKKEAERWQNARHKAEILSHPLYEQLLSAHVACLRIATPVDQLPRIDAQLAQSQNVVAKYSTLEAAQGLLAGDDKELDHFMTHYVLLLCSFKEQLQQHVRVHAMEAVMACWEIEQSLQSFTGVSPGEGTGATMSEDEDEQVESDAHLFDGSLDGLGFGPLVPTESERSLMERVRQELKHELKQGYKEKIVDIREEILRKRRAGKLPGDTTSVLKSWWQSHSKWPYPTEEDKARLVQETGLQLKQINNWFINQRKRNWHSNPSSSTVSKNKRRSNAGENSGRDR
# B9: MCM5, full length (protein, UniProt O80786 1-727)
# chain: MSGWDEGAVYYSDQPQFPEAGDAATISPHAVLTKFKEFIRNFEIEQNCFPYREALLDNPKRLVVHLEDLLSFDSDLPSLIRSAPADYLPVFEKAAGEVLTGLKMREANEGGVMEEPLTRDVQILLTSREDPVSMRLLGAQYISKLVKISGISIAASRVKAKATYVFLVCKNCKKTREVPCRPGLGGAIVPRSCDNIPQPGEEPCPLDPWMVVPDRSQYVDQQTLKLQENPEDVPTGELPRNMLLSVDRHLVQTIVPGTRLTVMGIYSIFQASSSSNSHKGAVAIRQPYIRVVGLEDTNEASSRGPANFTPDEEEEFKKFADSQDVYKNICTKIAPSIFGHEDVKRAAACLLFGGSRKSLPDGVKLRGDINVLLLGDPSTAKSQFLKFVEKTAPIAVYTSGKGSSAAGLTASVIRDSSTREFYLEGGAMVLADGGVVCIDEFDKMRPEDRVAIHEAMEQQTISIAKAGITTVLNSRTSVLAAANPPSGRYDDLKTAQDNIDLQTTILSRFDLIFIVKDIRKYSQDKEIASHIIRVHASANKFSDENTDSKEDNWLKRYIQYCRARCHPRLSKDAAENLQRKYVTIRMDMKRRAHETGEAAPIPITVRQLEAIVRLSESLAKMRLSHEATPDDVDKAFKLFDTSTMDAARSGINQQINITGEMANEIKQAETQIKRRMGIGARLSERRLIEDLARMGMNDSMVRRALLIMHQRGEVEYQRERRSIVRKA
# Target: T1, AtTERT RID construct (1-271 aa) (Arabidopsis thaliana)
# Assay: two-hybrid; Matchmaker GAL4 system, pGADT7-DEST/pGBKT7-DEST, S. cerevisiae PJ69-4α, 30 °C; growth on -LWH plates (with increasing 3-aminotriazol) and -LWHAde plates
row,binding,Binder
1,binds weakly,B1
2,no binding,B2

# Target: T2, AtTERT TEN construct (1-233 aa) (Arabidopsis thaliana)
# Assay: as above
row,binding,Binder
1,no binding,B3
2,binds,B4
3,binds,B5
4,binds,B6
5,no binding,B7
6,binds,B8
7,binds,B9

# Target: T3, POT1a (Arabidopsis thaliana)
# Assay: as above
row,binding,Binder
1,no binding,B3
2,binds,B4
3,binds,B5
4,binds,B6
5,no binding,B7
6,binds,B8
